Consider one substance from article PMC5527848.

Protein sequences, listed by entry. Tags and fused reporters are not part of them. Lines headed by an entry give the natural chain unless they say otherwise; changes in a name come on top.
UniProt G0S867: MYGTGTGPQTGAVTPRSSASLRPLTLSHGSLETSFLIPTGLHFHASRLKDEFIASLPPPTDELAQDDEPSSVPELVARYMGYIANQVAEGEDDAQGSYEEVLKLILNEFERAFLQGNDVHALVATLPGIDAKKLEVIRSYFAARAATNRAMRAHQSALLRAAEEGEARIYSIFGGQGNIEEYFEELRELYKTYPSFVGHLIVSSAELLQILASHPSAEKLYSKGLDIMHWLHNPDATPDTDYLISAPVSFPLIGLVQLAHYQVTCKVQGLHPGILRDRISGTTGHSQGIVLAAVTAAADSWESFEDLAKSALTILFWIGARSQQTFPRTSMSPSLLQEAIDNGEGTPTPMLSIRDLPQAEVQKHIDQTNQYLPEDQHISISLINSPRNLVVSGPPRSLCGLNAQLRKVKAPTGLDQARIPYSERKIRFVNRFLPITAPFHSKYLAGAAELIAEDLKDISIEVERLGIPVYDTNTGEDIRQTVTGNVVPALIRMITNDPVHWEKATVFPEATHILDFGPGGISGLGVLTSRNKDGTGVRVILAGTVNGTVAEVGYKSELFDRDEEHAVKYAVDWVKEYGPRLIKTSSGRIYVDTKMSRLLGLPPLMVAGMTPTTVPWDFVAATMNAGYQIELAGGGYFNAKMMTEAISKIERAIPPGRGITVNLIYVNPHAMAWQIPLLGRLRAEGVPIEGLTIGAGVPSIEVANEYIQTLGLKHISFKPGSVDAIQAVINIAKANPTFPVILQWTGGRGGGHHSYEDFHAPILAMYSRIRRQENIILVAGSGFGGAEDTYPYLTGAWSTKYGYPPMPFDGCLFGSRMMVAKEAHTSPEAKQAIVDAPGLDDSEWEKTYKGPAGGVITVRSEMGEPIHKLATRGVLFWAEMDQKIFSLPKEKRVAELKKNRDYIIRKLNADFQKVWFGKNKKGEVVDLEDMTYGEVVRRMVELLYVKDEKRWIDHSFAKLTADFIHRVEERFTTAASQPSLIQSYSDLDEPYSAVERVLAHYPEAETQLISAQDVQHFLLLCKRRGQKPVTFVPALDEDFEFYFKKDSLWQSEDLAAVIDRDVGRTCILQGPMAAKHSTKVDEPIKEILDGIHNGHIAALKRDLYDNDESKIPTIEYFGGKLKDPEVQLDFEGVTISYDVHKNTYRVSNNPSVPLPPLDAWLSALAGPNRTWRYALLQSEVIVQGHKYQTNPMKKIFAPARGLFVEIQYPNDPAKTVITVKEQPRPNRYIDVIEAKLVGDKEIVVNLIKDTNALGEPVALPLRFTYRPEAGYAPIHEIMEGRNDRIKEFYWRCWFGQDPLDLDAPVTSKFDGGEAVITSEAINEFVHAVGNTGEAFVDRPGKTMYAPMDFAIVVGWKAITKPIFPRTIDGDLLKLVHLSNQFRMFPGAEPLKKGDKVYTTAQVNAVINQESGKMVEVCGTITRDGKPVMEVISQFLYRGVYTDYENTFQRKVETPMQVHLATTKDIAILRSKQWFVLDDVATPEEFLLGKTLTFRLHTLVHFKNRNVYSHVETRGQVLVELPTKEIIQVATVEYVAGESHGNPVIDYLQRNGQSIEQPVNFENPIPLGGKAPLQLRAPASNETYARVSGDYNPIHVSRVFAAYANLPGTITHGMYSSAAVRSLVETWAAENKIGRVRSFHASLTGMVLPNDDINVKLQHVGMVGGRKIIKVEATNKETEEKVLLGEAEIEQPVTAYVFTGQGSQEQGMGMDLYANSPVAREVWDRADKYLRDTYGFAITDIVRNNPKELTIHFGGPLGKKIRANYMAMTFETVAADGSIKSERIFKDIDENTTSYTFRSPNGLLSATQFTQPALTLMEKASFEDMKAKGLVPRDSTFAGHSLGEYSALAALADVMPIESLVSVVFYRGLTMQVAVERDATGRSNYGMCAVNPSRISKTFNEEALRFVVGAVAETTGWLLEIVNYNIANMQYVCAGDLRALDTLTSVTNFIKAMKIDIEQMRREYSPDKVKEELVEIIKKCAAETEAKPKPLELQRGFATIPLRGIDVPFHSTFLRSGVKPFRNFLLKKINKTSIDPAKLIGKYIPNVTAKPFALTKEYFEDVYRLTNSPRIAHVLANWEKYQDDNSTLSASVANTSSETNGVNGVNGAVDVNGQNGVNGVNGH
UniProt G0S866: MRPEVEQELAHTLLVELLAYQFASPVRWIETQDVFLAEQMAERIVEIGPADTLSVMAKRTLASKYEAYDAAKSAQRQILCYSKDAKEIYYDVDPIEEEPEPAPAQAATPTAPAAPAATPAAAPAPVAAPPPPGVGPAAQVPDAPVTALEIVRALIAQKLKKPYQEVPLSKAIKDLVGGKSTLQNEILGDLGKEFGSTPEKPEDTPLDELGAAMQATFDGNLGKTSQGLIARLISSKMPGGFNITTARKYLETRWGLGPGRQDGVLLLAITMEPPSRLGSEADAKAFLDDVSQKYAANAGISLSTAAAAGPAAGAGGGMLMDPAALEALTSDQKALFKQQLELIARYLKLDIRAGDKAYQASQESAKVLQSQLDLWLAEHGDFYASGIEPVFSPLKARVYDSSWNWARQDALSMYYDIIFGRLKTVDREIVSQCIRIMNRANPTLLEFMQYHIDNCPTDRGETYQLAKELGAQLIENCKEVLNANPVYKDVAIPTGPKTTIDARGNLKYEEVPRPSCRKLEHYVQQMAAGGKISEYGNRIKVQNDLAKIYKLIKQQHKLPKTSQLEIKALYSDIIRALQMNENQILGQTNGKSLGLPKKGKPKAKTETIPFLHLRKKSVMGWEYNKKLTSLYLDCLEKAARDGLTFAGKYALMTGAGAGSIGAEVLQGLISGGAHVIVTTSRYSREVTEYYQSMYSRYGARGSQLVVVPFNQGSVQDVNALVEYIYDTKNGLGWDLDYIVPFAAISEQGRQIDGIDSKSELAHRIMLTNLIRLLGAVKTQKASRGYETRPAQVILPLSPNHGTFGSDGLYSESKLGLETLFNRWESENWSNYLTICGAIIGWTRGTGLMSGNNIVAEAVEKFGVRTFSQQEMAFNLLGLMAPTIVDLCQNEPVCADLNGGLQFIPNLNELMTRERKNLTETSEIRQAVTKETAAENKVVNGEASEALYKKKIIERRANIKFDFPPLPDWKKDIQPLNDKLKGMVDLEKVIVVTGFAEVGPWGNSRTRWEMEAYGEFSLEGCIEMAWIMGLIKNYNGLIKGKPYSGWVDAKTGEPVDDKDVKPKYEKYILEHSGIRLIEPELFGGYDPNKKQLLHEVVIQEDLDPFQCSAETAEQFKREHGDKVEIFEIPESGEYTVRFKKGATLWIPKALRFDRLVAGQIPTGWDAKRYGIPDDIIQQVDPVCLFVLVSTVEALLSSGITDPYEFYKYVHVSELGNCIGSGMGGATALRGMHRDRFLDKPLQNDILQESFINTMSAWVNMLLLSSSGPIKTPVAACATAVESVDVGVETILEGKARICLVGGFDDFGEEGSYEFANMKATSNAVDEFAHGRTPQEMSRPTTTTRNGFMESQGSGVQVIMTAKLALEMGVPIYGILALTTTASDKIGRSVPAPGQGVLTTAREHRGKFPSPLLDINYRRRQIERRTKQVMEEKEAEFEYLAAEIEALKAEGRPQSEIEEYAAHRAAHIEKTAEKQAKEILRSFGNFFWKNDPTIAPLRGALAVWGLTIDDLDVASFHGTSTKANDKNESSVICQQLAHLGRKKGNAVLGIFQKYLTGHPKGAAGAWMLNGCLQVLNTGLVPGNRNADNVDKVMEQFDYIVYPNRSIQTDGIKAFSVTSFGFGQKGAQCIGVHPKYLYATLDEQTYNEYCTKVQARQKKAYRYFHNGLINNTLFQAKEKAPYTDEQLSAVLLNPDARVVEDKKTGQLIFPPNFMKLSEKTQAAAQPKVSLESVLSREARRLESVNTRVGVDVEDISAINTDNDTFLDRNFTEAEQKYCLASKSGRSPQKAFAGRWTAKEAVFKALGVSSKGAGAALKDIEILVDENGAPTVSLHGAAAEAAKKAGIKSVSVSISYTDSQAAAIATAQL

The target of this test is fatty acid synthase subunit CTHT_0037750 (Chaetomium thermophilum (endogenous in cell extract)) (UniProt G0S867). The test is described as follows: cryo-EM structure; ctFAS ~50% enriched in SEC fractions 7-9 of the cell extract, no cross-linker; 3,933 particles, 4.7 Å.

These are yes or no findings as the source states them, for the method shown. A result given as binding can be weak or reduced; the word gives no strength.

For “fatty acid synthase subunit CTHT_0037740 (from UniProt G0S866) (enzyme)”, the binding result was “binds”.
